In the supplement of paper PMC8728848:
The list shows a part of the results.

Legend:
Assay in all cases: glycan array binding signal (z-score within array); higher = stronger binding
Details in all cases: glycan notation: IUPAC condensed, linker removed
[1] = biological target: Gal(b1-4)GlcNAc(b1-3)Gal(b1-4)GlcNAc(b1-2)[Gal(b1-4)GlcNAc(b1-3)Gal(b1-4)GlcNAc(b1-6)]Man(a1-6)[Gal(b1-4)GlcNAc(b1-3)Gal(b1-4)GlcNAc(b1-2)Man(a1-3)]Man(b1-4)GlcNAc(b1-4)GlcNAc
Outline: (§1)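 Glycan array data came from 3228 arrays in the Consortium for Functional Glycomics database, and only arrays with an available protein sequence were kept. Glycan names were put into IUPAC-condensed notation, and columns mapping to the same glycan were averaged. The binding signal is a within-array Z-score, averaged across arrays of one protein sequence run at different concentrations or buffers and across linkers. A negative Z-score can be read as non-binding.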

[2] = biological target: Gal(b1-4)GlcNAc(b1-3)Gal(b1-4)GlcNAc(b1-2)[Gal(b1-4)GlcNAc(b1-3)Gal(b1-4)GlcNAc(b1-6)]Man(a1-6)[Gal(b1-4)GlcNAc(b1-3)Gal(b1-4)GlcNAc(b1-2)Man(a1-3)]Man(b1-4)GlcNAc(b1-4)[Fuc(a1-6)]GlcNAc
Outline: as §1

[3] = biological target: Gal(b1-4)GlcNAc(b1-3)Gal(b1-4)GlcNAc(b1-3)Gal(b1-4)GlcNAc
Outline: as §1

[4] = biological target: Gal(b1-4)GlcNAc(b1-3)Gal(b1-4)GlcNAc(b1-3)Gal(b1-4)GlcNAc(b1-2)Man(a1-3)[Gal(b1-4)GlcNAc(b1-3)Gal(b1-4)GlcNAc(b1-3)Gal(b1-4)GlcNAc(b1-2)Man(a1-6)]Man(b1-4)GlcNAc(b1-4)GlcNAc
Outline: as §1

[5] = biological target: Gal(b1-4)GlcNAc(b1-3)Gal(b1-4)GlcNAc(b1-3)Gal(b1-4)GlcNAc(b1-2)Man(a1-3)[Gal(b1-4)GlcNAc(b1-3)Gal(b1-4)GlcNAc(b1-3)Gal(b1-4)GlcNAc(b1-2)Man(a1-6)]Man(b1-4)GlcNAc(b1-4)[Fuc(a1-6)]GlcNAc
Outline: as §1

[6] = biological target: Gal(b1-4)GlcNAc(b1-3)Gal(b1-4)GlcNAc(b1-3)Gal(b1-4)GlcNAc(b1-2)[Gal(b1-4)GlcNAc(b1-3)Gal(b1-4)GlcNAc(b1-3)Gal(b1-4)GlcNAc(b1-6)]Man(a1-6)[Gal(b1-4)GlcNAc(b1-3)Gal(b1-4)GlcNAc(b1-3)Gal(b1-4)GlcNAc(b1-2)Man(a1-3)]Man(b1-4)GlcNAc(b1-4)[Fuc(a1-6)]GlcNAc
Outline: as §1

[7] = biological target: Gal(b1-4)GlcNAc(b1-3)Gal(b1-4)GlcNAc(b1-3)Gal(b1-4)GlcNAc(b1-3)Gal(b1-4)GlcNAc(b1-2)Man(a1-3)[Gal(b1-4)GlcNAc(b1-3)Gal(b1-4)GlcNAc(b1-3)Gal(b1-4)GlcNAc(b1-3)Gal(b1-4)GlcNAc(b1-2)Man(a1-6)]Man(b1-4)GlcNAc(b1-4)GlcNAc
Outline: as §1

[8] = biological target: Gal(b1-4)GlcNAc(b1-3)Gal(b1-4)GlcNAc(b1-3)Gal(b1-4)GlcNAc(b1-3)Gal(b1-4)GlcNAc(b1-2)Man(a1-3)[Gal(b1-4)GlcNAc(b1-3)Gal(b1-4)GlcNAc(b1-3)Gal(b1-4)GlcNAc(b1-3)Gal(b1-4)GlcNAc(b1-2)Man(a1-6)]Man(b1-4)GlcNAc(b1-4)[Fuc(a1-6)]GlcNAc
Outline: as §1

[9] = biological target: Gal(b1-4)GlcNAc(b1-3)Gal(b1-4)GlcNAc(b1-3)Gal(b1-4)GlcNAc(b1-3)Gal(b1-4)GlcNAc(b1-2)[Gal(b1-4)GlcNAc(b1-3)Gal(b1-4)GlcNAc(b1-3)Gal(b1-4)GlcNAc(b1-3)Gal(b1-4)GlcNAc(b1-6)]Man(a1-6)[Gal(b1-4)GlcNAc(b1-3)Gal(b1-4)GlcNAc(b1-3)Gal(b1-4)GlcNAc(b1-3)Gal(b1-4)GlcNAc(b1-2)Man(a1-3)]Man(b1-4)GlcNAc(b1-4)[Fuc(a1-6)]GlcNAc
Outline: as §1

[10] = biological target: Gal(b1-4)GlcNAc(b1-3)Gal(b1-4)GlcNAc(b1-3)Gal(b1-4)GlcNAc(b1-3)Gal(b1-4)GlcNAc(b1-3)Gal(b1-4)GlcNAc(b1-2)Man(a1-3)[Gal(b1-4)GlcNAc(b1-3)Gal(b1-4)GlcNAc(b1-3)Gal(b1-4)GlcNAc(b1-3)Gal(b1-4)GlcNAc(b1-3)Gal(b1-4)GlcNAc(b1-2)Man(a1-6)]Man(b1-4)GlcNAc(b1-4)GlcNAc
Outline: as §1

[11] = biological target: Gal(b1-4)GlcNAc(b1-3)Gal(b1-4)GlcNAc(b1-3)Gal(b1-4)GlcNAc(b1-3)Gal(b1-4)GlcNAc(b1-3)Gal(b1-4)GlcNAc(b1-2)Man(a1-3)[Gal(b1-4)GlcNAc(b1-3)Gal(b1-4)GlcNAc(b1-3)Gal(b1-4)GlcNAc(b1-3)Gal(b1-4)GlcNAc(b1-3)Gal(b1-4)GlcNAc(b1-2)Man(a1-6)]Man(b1-4)GlcNAc(b1-4)[Fuc(a1-6)]GlcNAc
Outline: as §1

[12] = biological target: Gal(b1-4)GlcNAc(b1-3)Gal(b1-4)GlcNAc(b1-3)Gal(b1-4)GlcNAc(b1-3)Gal(b1-4)GlcNAc(b1-3)Gal(b1-4)GlcNAc(b1-2)[Gal(b1-4)GlcNAc(b1-3)Gal(b1-4)GlcNAc(b1-3)Gal(b1-4)GlcNAc(b1-3)Gal(b1-4)GlcNAc(b1-3)Gal(b1-4)GlcNAc(b1-6)]Man(a1-6)[Gal(b1-4)GlcNAc(b1-3)Gal(b1-4)GlcNAc(b1-3)Gal(b1-4)GlcNAc(b1-3)Gal(b1-4)GlcNAc(b1-3)Gal(b1-4)GlcNAc(b1-2)Man(a1-3)]Man(b1-4)GlcNAc(b1-4)[Fuc(a1-6)]GlcNAc
Outline: as §1

[13] = biological target: Gal(b1-4)GlcNAc(b1-3)Gal(b1-4)GlcNAc(b1-3)Gal(b1-4)GlcNAc(b1-3)Gal(b1-4)GlcNAc(b1-3)Gal(b1-4)GlcNAc(b1-3)Gal(b1-4)GlcNAc(b1-2)Man(a1-3)[Gal(b1-4)GlcNAc(b1-3)Gal(b1-4)GlcNAc(b1-3)Gal(b1-4)GlcNAc(b1-3)Gal(b1-4)GlcNAc(b1-3)Gal(b1-4)GlcNAc(b1-3)Gal(b1-4)GlcNAc(b1-2)Man(a1-6)]Man(b1-4)GlcNAc(b1-4)GlcNAc
Outline: as §1

[14] = biological target: Gal(b1-4)GlcNAc(b1-3)Gal(b1-4)GlcNAc(b1-3)GalNAc
Outline: as §1

[15] = biological target: Gal(b1-4)GlcNAc(b1-3)Gal(b1-4)GlcNAc(b1-3)[Gal(b1-4)GlcNAc(b1-3)Gal(b1-4)GlcNAc(b1-6)]GalNAc
Outline: as §1

[16] = biological target: Gal(b1-4)GlcNAc(b1-3)Gal(b1-4)GlcNAc(b1-6)[Gal(b1-3)]GalNAc
Outline: as §1

[17] = biological target: Gal(b1-4)GlcNAc(b1-3)Gal(b1-4)[Fuc(a1-3)]GlcNAc(b1-3)Gal(b1-4)[Fuc(a1-3)]GlcNAc
Outline: as §1

[18] = biological target: Gal(b1-4)GlcNAc(b1-3)GalNAc
Outline: as §1

[19] = biological target: Gal(b1-4)GlcNAc(b1-3)[Fuc(a1-3)GlcNAc(b1-6)]Gal(b1-4)Glc
Outline: as §1

[20] = biological target: Gal(b1-4)GlcNAc(b1-3)[Gal(b1-4)GlcNAc(b1-6)]Gal(b1-4)GlcNAc
Outline: as §1

[21] = biological target: Gal(b1-4)GlcNAc(b1-3)[GlcNAc(b1-6)]Gal(b1-4)GlcNAc
Outline: as §1

[22] = biological target: Gal(b1-4)GlcNAc(b1-6)Gal(b1-4)GlcNAc
Outline: as §1

[23] = biological target: Gal(b1-4)GlcNAc(b1-6)GalNAc
Outline: as §1

[24] = biological target: Gal(b1-4)GlcNAc(b1-6)[Gal(b1-3)]GalNAc
Outline: as §1

[25] = biological target: Gal(b1-4)GlcNAc(b1-6)[Gal(b1-4)GlcNAc(b1-3)]GalNAc
Outline: as §1

Gal(b1-4)GlcNAc6P = biological target: Gal(b1-4)GlcNAc6P
Outline: as §1

Gal(b1-6)Gal = biological target: Gal(b1-6)Gal
Outline: as §1

Gal3S(b1-3)GalNAc = biological target: Gal3S(b1-3)GalNAc
Outline: as §1

Gal3S(b1-3)GlcNAc = biological target: Gal3S(b1-3)GlcNAc
Outline: as §1

[26] = biological target: Gal3S(b1-3)[Fuc(a1-4)]GlcNAc
Outline: as §1

Gal3S(b1-4)Glc = biological target: Gal3S(b1-4)Glc
Outline: as §1

Gal3S(b1-4)Glc6S = biological target: Gal3S(b1-4)Glc6S
Outline: as §1

Gal3S(b1-4)GlcNAc = biological target: Gal3S(b1-4)GlcNAc
Outline: as §1

[27] = biological target: Gal3S(b1-4)[Fuc(a1-3)]Glc6S
Outline: as §1

[28] = biological target: Gal3S(b1-4)[Fuc(a1-3)]GlcNAc
Outline: as §1

[29] = biological target: Gal3S(b1-4)[Fuc(a1-3)]GlcNAc6S
Outline: as §1

Gal3S4S(b1-4)GlcNAc = biological target: Gal3S4S(b1-4)GlcNAc
Outline: as §1

B1: Clec18Av1 (Homo sapiens), A5D8T8 (protein)
chain: MLHPETSPGRGHLLAVLLALLGTAWAEVWPPQLQEQAPMAGALNRKESFLLLSLHNRLRSWVQPPAADMRRLDWSDSLAQLAQARAALCGTPTPSLASGLWRTLQVGWNMQLLPAGLVSFVEVVSLWFAEGQRYSHAAGECARNATCTHYTQLVWATSSQLGCGRHLCSAGQAAIEAFVCAYSPRGNWEVNGKTIVPYKKGAWCSLCTASVSGCFKAWDHAGGLCEVPRNPCRMSCQNHGRLNISTCHCHCPPGYTGRYCQVRCSLQCVHGRFREEECSCVCDIGYGGAQCATKVHFPFHTCDLRIDGDCFMVSSEADTYYRARMKCQRKGGVLAQIKSQKVQDILAFYLGRLETTNEVIDSDFETRNFWIGLTYKTAKDSFRWATGEHQAFTSFAFGQPDNHGFGNCVELQASAAFNWNDQRCKTRNRYICQFAQEHISRWGPGS
[1]
  glycan array binding signal (z-score): -0.486
[2]
  glycan array binding signal (z-score): 0.779
[3]
  glycan array binding signal (z-score): 0.892
[4]
  glycan array binding signal (z-score): 0.526
[5]
  glycan array binding signal (z-score): 1.59
[6]
  glycan array binding signal (z-score): 1.09
[7]
  glycan array binding signal (z-score): 1.2
[8]
  glycan array binding signal (z-score): -0.043
[9]
  glycan array binding signal (z-score): 0.227
[10]
  glycan array binding signal (z-score): 0.95
[11]
  glycan array binding signal (z-score): 2.4
[12]
  glycan array binding signal (z-score): 2.85
[13]
  glycan array binding signal (z-score): -0.16
[14]
  glycan array binding signal (z-score): -0.32
[15]
  glycan array binding signal (z-score): 0.461
[16]
  glycan array binding signal (z-score): 0.142
[17]
  glycan array binding signal (z-score): -0.709
[18]
  glycan array binding signal (z-score): -0.386
[19]
  glycan array binding signal (z-score): -0.175
[20]
  glycan array binding signal (z-score): 1.08
[21]
  glycan array binding signal (z-score): 1.16
[22]
  glycan array binding signal (z-score): 0.508
[23]
  glycan array binding signal (z-score): -0.134
[24]
  glycan array binding signal (z-score): 0.25
[25]
  glycan array binding signal (z-score): 0.15
Gal(b1-4)GlcNAc6P
  glycan array binding signal (z-score): 0.695
Gal(b1-6)Gal
  glycan array binding signal (z-score): 0.799
Gal3S(b1-3)GalNAc
  glycan array binding signal (z-score): -0.82
Gal3S(b1-3)GlcNAc
  glycan array binding signal (z-score): -0.789
[26]
  glycan array binding signal (z-score): 0.307
Gal3S(b1-4)Glc
  glycan array binding signal (z-score): -0.684
Gal3S(b1-4)Glc6S
  glycan array binding signal (z-score): -0.717
Gal3S(b1-4)GlcNAc
  glycan array binding signal (z-score): -0.405
[27]
  glycan array binding signal (z-score): 0.003
[28]
  glycan array binding signal (z-score): -0.715
[29]
  glycan array binding signal (z-score): -0.271
Gal3S4S(b1-4)GlcNAc
  glycan array binding signal (z-score): -0.821
